# Experimental data reported in publication PMC12141670.
# Sequences of proteins named here, by UniProt entry; tags and fusion partners are left off. A change or cut given only in a name is not applied to a line headed by its entry. Residues count along the entry.
# UniProt Q95X71: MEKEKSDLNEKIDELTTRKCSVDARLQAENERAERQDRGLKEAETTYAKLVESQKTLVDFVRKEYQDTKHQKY
# UniProt P02769, residues 25-607: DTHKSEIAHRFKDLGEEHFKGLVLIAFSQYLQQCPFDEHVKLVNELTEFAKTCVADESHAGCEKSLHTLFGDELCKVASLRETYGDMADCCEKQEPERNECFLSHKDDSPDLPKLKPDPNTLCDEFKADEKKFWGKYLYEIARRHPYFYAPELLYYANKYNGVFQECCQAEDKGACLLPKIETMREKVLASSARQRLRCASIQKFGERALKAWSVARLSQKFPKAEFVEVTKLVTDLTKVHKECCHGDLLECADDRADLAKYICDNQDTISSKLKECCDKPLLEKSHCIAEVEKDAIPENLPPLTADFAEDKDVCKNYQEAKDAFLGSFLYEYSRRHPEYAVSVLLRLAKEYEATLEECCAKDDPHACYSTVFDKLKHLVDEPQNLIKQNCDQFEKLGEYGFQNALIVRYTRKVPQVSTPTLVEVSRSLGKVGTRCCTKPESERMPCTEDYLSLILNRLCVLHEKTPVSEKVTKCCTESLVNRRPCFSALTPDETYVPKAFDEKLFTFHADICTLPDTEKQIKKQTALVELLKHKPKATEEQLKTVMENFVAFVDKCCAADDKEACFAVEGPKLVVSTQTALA
# These are yes or no findings as the source states them, for the method shown.
# Target: SSNA-1 (C. elegans ortholog of Sjogren's Syndrome Nuclear Antigen 1) (C. elegans) (UniProt Q95X71)
# Assay: co-sedimentation; purified proteins incubated alone or together for 10 min at room temperature; 1.25 μM ZYG-1 or BSA, 10 μM SSNA-1 filaments or GMPCPP microtubules; 30 μL; 80,000 rpm (278,088 × g), TLA-120.2, 10 min, 25 °C; supernatant and pellet by SDS-PAGE and immunoblot; SSNA-1 in 50 mM phosphate pH 7.5, 150 mM NaCl, 10% glycerol, 1 mM DTT; both purified
substance,measurement,value
BSA (from UniProt P02769 25-607),binding,"no binding (tested: 1.25 μM BSA, 10 μM SSNA-1)"
